According to patent publication US20090181900A1:
Results are given in words; binding and its absence hold for the method and conditions named. Some binding calls cover weakened binding; strength is not graded here. Where a sequence is shown, tags or fusion partners need not be part of it.

Sequences of proteins named here, by UniProt entry; tags and fusion partners are left off. A change or cut given only in a name is not applied to a line headed by its entry.
UniProt P13612: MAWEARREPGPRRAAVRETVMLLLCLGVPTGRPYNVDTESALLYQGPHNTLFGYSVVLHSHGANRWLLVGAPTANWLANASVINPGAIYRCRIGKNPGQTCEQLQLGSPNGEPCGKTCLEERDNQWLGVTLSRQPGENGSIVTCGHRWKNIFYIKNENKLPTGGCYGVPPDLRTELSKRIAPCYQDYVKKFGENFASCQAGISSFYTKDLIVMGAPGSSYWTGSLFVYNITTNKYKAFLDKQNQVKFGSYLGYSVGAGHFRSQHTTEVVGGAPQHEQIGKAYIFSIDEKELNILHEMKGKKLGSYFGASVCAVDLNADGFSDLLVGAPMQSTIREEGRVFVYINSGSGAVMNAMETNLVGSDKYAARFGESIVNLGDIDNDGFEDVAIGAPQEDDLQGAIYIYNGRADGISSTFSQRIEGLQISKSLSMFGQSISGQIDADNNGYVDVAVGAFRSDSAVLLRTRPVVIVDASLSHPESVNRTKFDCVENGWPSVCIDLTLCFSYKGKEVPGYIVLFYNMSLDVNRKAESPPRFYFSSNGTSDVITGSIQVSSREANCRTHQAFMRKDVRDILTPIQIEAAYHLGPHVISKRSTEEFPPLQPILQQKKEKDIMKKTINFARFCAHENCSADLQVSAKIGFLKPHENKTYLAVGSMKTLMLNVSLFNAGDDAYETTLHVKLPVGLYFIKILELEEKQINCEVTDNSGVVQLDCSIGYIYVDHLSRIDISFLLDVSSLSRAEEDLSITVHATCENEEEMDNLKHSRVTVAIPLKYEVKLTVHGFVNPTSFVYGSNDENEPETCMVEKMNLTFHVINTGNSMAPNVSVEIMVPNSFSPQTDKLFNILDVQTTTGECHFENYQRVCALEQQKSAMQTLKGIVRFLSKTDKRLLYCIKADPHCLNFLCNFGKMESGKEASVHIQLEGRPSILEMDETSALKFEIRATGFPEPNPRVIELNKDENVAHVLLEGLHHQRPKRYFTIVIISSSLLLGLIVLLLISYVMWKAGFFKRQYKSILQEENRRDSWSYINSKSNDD
UniProt Q00651: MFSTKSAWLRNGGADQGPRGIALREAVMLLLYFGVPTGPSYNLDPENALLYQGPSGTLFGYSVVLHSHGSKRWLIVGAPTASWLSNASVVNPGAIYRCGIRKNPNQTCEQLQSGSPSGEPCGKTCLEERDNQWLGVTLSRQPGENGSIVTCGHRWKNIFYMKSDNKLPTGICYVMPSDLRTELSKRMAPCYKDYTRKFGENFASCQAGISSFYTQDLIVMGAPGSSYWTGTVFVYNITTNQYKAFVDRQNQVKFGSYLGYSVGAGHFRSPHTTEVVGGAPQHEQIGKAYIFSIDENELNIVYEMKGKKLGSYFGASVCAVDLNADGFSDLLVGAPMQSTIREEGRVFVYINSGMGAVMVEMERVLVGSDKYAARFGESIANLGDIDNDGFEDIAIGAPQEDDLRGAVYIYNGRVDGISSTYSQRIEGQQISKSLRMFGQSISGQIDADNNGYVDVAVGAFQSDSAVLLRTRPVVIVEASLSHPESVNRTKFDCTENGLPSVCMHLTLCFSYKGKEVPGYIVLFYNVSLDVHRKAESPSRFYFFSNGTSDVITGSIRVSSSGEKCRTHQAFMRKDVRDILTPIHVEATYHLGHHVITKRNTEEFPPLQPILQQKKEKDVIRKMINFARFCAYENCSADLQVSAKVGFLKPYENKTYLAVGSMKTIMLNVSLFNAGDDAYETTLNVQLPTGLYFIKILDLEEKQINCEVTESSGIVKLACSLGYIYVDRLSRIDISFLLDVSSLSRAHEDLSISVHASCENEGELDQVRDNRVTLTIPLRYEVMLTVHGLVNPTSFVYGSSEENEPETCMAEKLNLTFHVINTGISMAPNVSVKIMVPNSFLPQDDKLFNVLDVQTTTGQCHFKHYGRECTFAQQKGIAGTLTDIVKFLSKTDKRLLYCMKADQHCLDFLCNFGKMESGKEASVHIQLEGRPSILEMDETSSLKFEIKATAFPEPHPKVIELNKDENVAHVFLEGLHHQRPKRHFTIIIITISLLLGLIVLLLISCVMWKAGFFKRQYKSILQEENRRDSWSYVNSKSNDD

Assays:
[1] = biological target: T1, soluble recombinant mouse MAdCAM-1-Fc (mouse) (UniProt Q61826); assay: cell adhesion assay, activated cells adhered to coated slides before the peptide was added
T1 sequence (looked up): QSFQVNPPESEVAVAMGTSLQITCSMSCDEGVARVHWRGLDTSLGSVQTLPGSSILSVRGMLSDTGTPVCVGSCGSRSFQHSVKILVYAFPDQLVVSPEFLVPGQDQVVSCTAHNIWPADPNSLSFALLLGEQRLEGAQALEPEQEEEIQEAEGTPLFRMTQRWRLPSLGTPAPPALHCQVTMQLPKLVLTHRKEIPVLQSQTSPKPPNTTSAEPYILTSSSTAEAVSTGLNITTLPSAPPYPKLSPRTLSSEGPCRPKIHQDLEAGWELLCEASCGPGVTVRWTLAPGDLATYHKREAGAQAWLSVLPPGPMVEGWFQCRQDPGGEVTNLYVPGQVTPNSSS

[2] = biological target: T1, soluble recombinant mouse MAdCAM-1-Fc (mouse); assay: cell adhesion assay, Mn++ or PMA-activated H9 cells on slides coated with MAdCAM-1-Fc
[3] = biological target: T2, soluble human VCAM-1-Fc chimera (human) (UniProt P19320); assay: cell adhesion assay, activated TK-1 cells on slides coated with VCAM-1-Fc
T2 sequence (looked up): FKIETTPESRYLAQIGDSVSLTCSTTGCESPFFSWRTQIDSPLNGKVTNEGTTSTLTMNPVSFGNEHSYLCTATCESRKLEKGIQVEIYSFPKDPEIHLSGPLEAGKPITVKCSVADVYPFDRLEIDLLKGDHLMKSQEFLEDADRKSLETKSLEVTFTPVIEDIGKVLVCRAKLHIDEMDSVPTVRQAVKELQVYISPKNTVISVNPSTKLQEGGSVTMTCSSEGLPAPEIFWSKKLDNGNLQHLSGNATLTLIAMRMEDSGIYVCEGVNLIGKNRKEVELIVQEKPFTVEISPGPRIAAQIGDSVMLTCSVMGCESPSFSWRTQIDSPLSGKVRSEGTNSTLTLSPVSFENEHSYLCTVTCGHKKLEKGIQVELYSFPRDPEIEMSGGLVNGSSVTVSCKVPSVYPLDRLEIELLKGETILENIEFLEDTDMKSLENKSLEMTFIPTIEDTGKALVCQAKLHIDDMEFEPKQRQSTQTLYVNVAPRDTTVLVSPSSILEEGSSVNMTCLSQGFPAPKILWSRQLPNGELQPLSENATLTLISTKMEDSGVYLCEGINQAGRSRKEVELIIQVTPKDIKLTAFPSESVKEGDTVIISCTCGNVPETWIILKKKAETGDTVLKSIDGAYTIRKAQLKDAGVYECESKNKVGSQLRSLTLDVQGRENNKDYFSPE

[4] = biological target: T2, soluble human VCAM-1-Fc chimera (human); assay: cell adhesion assay, activated cells adhered to coated slides before the peptide was added
[5] = biological target: T1, soluble recombinant mouse MAdCAM-1-Fc (mouse); assay: cell adhesion assay, activated TK-1 cells on slides coated with MAdCAM-1-Fc

binding [1]	binding [2]	binding [3]	binding [4]	binding [5]	Substance
binds	binds				integrin α4β7 on human H9 T lymphoma cells (from UniProt P13612 34-1032; P26010 20-798) (receptor)
binds		binds	binds	binds	integrin α4β7 on mouse TK-1 T lymphoma cells (from UniProt Q00651 41-1039; P26011 20-806) (receptor)
